Reference: PubChem BioAssay AID602196 (INSERM, 2012)
The whole screen tested about 23,000 reagents; below is an unselected part. 455 of them (2%) were called active. 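Active includes both protection and sensitisation; some change values fall well beyond the stated -50 to +50 range.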 Unmarked entries are inactive. The numbers tell different reagents against one gene apart. Further read-outs or replicates are left out here. Reagent sequences are not shown. Not stated in the record: the amount of reagent.

- Test: 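Modifiers of cisplatin sensitivity in A549 cells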
- System: human A549 lung cancer cells
- Reagent: siRNA pair against human genes
- Time to read-out: 48 h transfection before cisplatin; time from cisplatin to read-out not stated
- Conditions: cisplatin at a dose killing half of control-siRNA cells; exact dose and duration not given
- Detection: 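Cisplatin cell death as a shift from the 50% death seen with control siRNA; siRNAs toxic or growth-blocking alone scored 0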
- Direction: two-siRNA summed score (-2 to +2): higher = both siRNAs protect from cisplatin killing; -2 means both sensitise; mean protection from cisplatin (shift in death) and protection from cisplatin (shift in death), siRNA C: higher = protection from cisplatin killing
- Active means: 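Each siRNA scores 0 if harmful alone by LDH or WST-1, otherwise +1 if it reduces and -1 if it increases cisplatin killing; a gene is active when both siRNAs agree (sum +2 or -2)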
- Meaning of the calls: active = both siRNAs shift cisplatin killing the same way; inactive = no consistent shift, or siRNA harmful alone

gene | reagent | two-siRNA summed score (-2 to +2) | mean protection from cisplatin (shift in death) (%) | protection from cisplatin (shift in death), siRNA C (%)
CLIC4P3 | 1 | 0 | 7.8 | -0.2
UMODL1 | 1 | 0 | 8.4 | -7.7
KIAA1613 | 1 | 0 | -19.4 | -27.1
HHATL | 1 | 0 | 15.6 | 8.8
OPN5 | 1 | 0 | 15.5 | 30.5
OPN5 | 2 | 1 | 11.5 | 11.2
LOC392215 | 1 | 0 | 17.2 | 27.3
PTMS | 1 | -1 | -2 | -17.1
LINC00470 | 1 | 0 | 5.8 | -10.9
WNT5B | 1 | 0 | 1.6 | -4.6
PRICKLE3 | 1 | 1 | 8.6 | 25.3
ZDHHC7 | 1 | 0 | 9.4 | 17.3
JMJD6 | 1 | -1 | -6.8 | -25.2
LOC441312 | 1 | 0 | 8.2 | 7.6
SYT12 | 1 | 0 | 4 | -0.8
TMBIM6 | 1 | -1 | -9.7 | -19.1
GAS6 | 1 | 0 | 8 | 2.9
CDH10 | 1 | 1 | 6.2 | -9.1
LOC442004 | 1 | 0 | 3.4 | -4.8
VSIG10L2 | 1 | 0 | 12.7 | 13.1
BLNK | 1 | -1 | -16.1 | -15.5
ZNF214 | 1 | 1 | 7.5 | 5.4
NECTIN4 | 1 | 0 | 3.4 | -4.5
LOC144404 | 1 | 0 | -2.7 | 1.1
TCF25 | 1 | 0 | 9.7 | 8.7
NCBP2 | 1 | 0 | -10.3 | 15.4
SPTSSB | 1 | 0 | 8.4 | 7.7
LOC441349 | 1 | 0 | 11.3 | 24.3
ACTRT3 | 1 | 0 | 3.7 | 6.8
AVPR1B | 1 | -1 | -8.5 | -0.2
EAF1 | 1 | 1 | 8.1 | 17.2
C20orf173 | 1 | 0 | 19.3 | 25
RGS12 | 1 | 0 | 4.4 | 2.2
EIF3M | 1 | 0 | 25.3 | 25.1
SRCAP | 1 | 0 | -7.2 | -6.7
LOC132556 | 1 | 0 | 4.2 | 6.1
LOC440343 | 1 | 0 | 7.6 | 2.9
LOC401098 (retired record) | 1 | 0 | -6.9 | -11.7
STMN4 | 1 | 0 | 0.7 | -0.2
LOC440098 | 1 | 0 | 11.9 | 19.9
HLA-F | 1 | 1 | 2 | -20.4
PINK1 | 1 | 0 | 7.4 | 7.7
SPINK7 | 1 | 0 | 4 | 1.9
GAREM1 | 1 | 0 | 3 | -0.4
SIX3 | 1 | 1 | 22 | 25.9
CASR | 1 | 0 | 6.4 | 22.7
EGFLAM | 1 | 1 | 5.4 | 2.3
GP6 | 1 | 0 | -8.8 | -3.8
AP1S3 | 1 | 0 | 7.2 | 3.4
LST1 | 1 | 0 | 14.4 | 15.2
SCGB1C1 | 1 | 0 | 2.8 | 3.9
SPOCK2 | 1 | 1 | 13.8 | 5
LOC441526 | 1 | 0 | 4.1 | 9
FLJ22588 | 1 | 0 | 5.9 | 3.4
MRM1 | 1 | 0 | 10.9 | -6.6
LOC146110 | 1 | -1 | -19.9 | -8.2
FXYD2 | 1 | -1 | -6.6 | 3.1
CPZ | 1 | -1 | -8.6 | 3.1
ATRN | 1 | 0 | 5 | 13.7
EYA2 | 1 | 0 | 5.8 | 5.3
PDIA3 | 1 | -1 | -10.8 | -17.7
ST6GALNAC1 | 1 | 0 | 10.1 | 5
KCNJ14 | 1 | 0 | 13.3 | 31.4
HORMAD2 | 1 | 0 | 3.2 | -0.1
DNAI2 | 1 | -1 | -14 | -8.3
PKP3 | 1 | 1 | 26.7 | 34.6
CTTNBP2NL | 1 | 0 | 4.6 | 10.6
SULT2B1 | 1 | 0 | 5.7 | 15.3
LOC387715 | 1 | 0 | 22.5 | 21
TCHP | 1 | 0 | 5.1 | 0.5
BRD9 | 1 | 0 | 7.7 | 8.9
ZNF710 | 1 | 0 | 7.3 | 12.3
RCBTB1 | 1 | 0 | 3.6 | 7.3

A run of entries of the results above, as a working copy:
gene | reagent | two-siRNA summed score (-2 to +2) | mean protection from cisplatin (shift in death) (%) | protection from cisplatin (shift in death), siRNA C (%)
PRICKLE3 | 1 | 1 | 8.6 | 25.3
ZDHHC7 | 1 | 0 | 9.4 | 17.3
JMJD6 | 1 | -1 | -6.8 | -25.2
LOC441312 | 1 | 0 | 8.2 | 7.6
SYT12 | 1 | 0 | 4 | -0.8
TMBIM6 | 1 | -1 | -9.7 | -19.1
GAS6 | 1 | 0 | 8 | 2.9
CDH10 | 1 | 1 | 6.2 | -9.1
LOC442004 | 1 | 0 | 3.4 | -4.8
